# Primary screen of a compound library

Values are the deposited “Percent Effect”, in %. How 0% and 100% were set is not recorded. Most values in the screen are low, and negative values occur. Compounds were drawn at random from those tested, without regard to their results. Two or more numbers in one place are separate tests of the same structure; such repeats can differ widely. A dash means the value is not listed here; it may have been measured.

Toxoplasma: 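Assay of Toxoplasma gondii numbers, read through their beta-galactosidase reporter with a colour substrate. Compounds at 10 µM. Higher reads as fewer parasites (inferred from which compounds were picked for retests). About 67,000 compounds were tested under these conditions; 0.38% (about 260) showed 50% or more at least once.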
T. brucei: 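Whole-parasite assay of Trypanosoma brucei over 72 hours; the read-out is not stated. Compounds at 30 µM. The record gives no direction; compounds that gave an IC50 in retests scored well above the rest, so higher reads as stronger inhibition. Values scatter widely below zero; nearly all retest evidence comes from the higher of the two concentrations used. Of about 64,000 compounds tested this way, about 940 (1.5%) reached 50% or more in at least one test.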
Leishmania in macrophages: 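Cell assay of Leishmania donovani living inside macrophages; the read-out is not stated. Compounds at 30 µM. Higher reads as stronger inhibition (inferred: compounds with an IC50 in retests scored well above the rest). Of about 69,000 compounds tested this way, about 1,000 (1.5%) reached 50% or more in at least one test.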

Compound	Toxoplasma	T. brucei	Leishmania in macrophages
CN(C)S(=O)(=O)CCCOc1cccc(-n2ccnc2)c1	5	-21.75	-0.5544
O=C(Nc1cccs1)NC(CCCO)c1ccccc1 (configuration not stated)	-1.396	-36.06	-10.56
CCS(=O)(=O)Cc1ccn(-c2cccc(F)c2)n1	2.126	-48.29	-2.945
CN1CCN(C(=O)c2cccs2)Cc2ccccc21	22.98	2.747	9.933
CS(=O)(=O)CCN(Cc1cccc(O)c1)C1CCC(O)CC1 (configuration not stated)	-8.512	-21.75	4.743
CN(Cc1ccccc1)C(=O)c1cc2c(c(S(N)(=O)=O)c1)CCC2	-8.764	-18.84	-20.72
Cn1ccnc1-c1nc2cc(S(=O)(=O)N3CCCC3)ccc2n1C	-11.57	-30.93	-34.23
[H][C@@]12CN(C(=O)c3ccnnc3)C[C@]1([H])C(=O)N(Cc1cccc(F)c1)C2	-1.706	-10.88	16.7
COc1ccc(CCNC(=O)NCc2cccc(C(N)=O)c2)cc1OC	9.057	-32.63	18.49
COc1cc(CN(C)C(=O)NCC(=O)NC(C)C)ccc1SC	-3.753	10.1	18.29
CC(=O)Nc1nc(C2CCN(C(=O)Cc3ccccc3)CC2)cs1	-24.08	29.89	-19.22
O=C(c1cccc2c1OCCO2)N1CCCCC1Cn1cccn1 (configuration not stated)	0.6948	-2.388	-19.33
CC(C)NC(=O)CC1COC2(CCN(Cc3cccs3)CC2)C1.O=C(O)C(F)(F)F (configuration not stated)	5.069	-7.067	45.89
Cc1cccc(CC(=O)NC2CCN(C(=O)NC(C)(C)C)CC2)c1	2.973	-40.1	-24.82
Cc1ccc(-c2nc(CN3CCCC3Cn3cc(C)cn3)no2)cc1 (configuration not stated)	6.513	-34.39	-13.28
Cc1nonc1NC(=O)c1ccc(F)c(COCC2CC2)c1	-5	-18.8	-18.45
CC(NCC1CCN(CCO)CC1)c1ccc(F)c(Cl)c1 (configuration not stated)	11.18	8.863	55.27
CCC(=O)N1CCN(c2ccc(C(=O)OC)cc2)CC1C (configuration not stated)	-1.1	6.915	-13.24
[H][C@@]12NC(=O)N[C@@H](c3ccc(C(=O)O)cc3)[C@]1([H])CCCO2	1.756	-17.47	0.616
N#Cc1ccccc1CC1CCCS(=O)(=O)C1 (configuration not stated)	1.561	-10.2	19.41
c1coc(-c2nc(CN3CCCC(Cn4cncn4)C3)cs2)c1 (configuration not stated)	37.81	-28.13	19.76
Cc1ccc(N2Cc3cnn(C)c3C(COCC3CC3)C2)nn1.O=C(O)C(F)(F)F.O=C(O)C(F)(F)F (configuration not stated)	7.528	-34.44	12.35
Cc1cccc(CN2CC3(CCNCC3)OCC2=O)n1	4.259	-0.1728	11.99
Cn1cc(CNCC(c2ccc(Cl)cc2)n2cccn2)cn1 (configuration not stated)	-14.45	-	0.8919
COCc1nc(CNC(=O)C(C)n2ccnc2C(C)C)no1 (configuration not stated)	-20.52	-	-7.466
CC(C)C(=O)N1CCCC1C(=O)Nc1ccc(F)c(F)c1 (configuration not stated)	7.777	-15.14	8.211
O=C(NCCc1c[nH]cn1)C1CCCN(Cc2ccco2)C1 (configuration not stated)	1.158	2.618	8.345
O=C(CCc1nccs1)N1CCN(c2cccnn2)CC1	3.131	-7.057	-3.089
Cc1nc(CNc2ccccc2CCC(F)(F)F)cs1	-3.844	10.07	6.456
CC(C)(C)CC(=O)N1[C@@H](c2ccco2)[C@@H](CO)C[C@]12CCCCNC2=O	13.68	-36.04	-5.779
COCC(c1cccc(C(F)(F)F)c1)N(C)C(=O)c1ccco1 (configuration not stated)	-10.18	10.91	11.79
Cc1cnn(CC2CCCN2C(=O)CCc2ccco2)c1 (configuration not stated)	-7.695	-3.866	-13.06
Cc1ccc(CNC(CN2CCN(C)CC2)c2ccccc2)cc1C (configuration not stated)	30.56	57.4	99.89 and 99.17
O=C(O)C(=O)O.c1cncc(CN2CCC(c3ccc4c(c3)OCO4)CC2)c1	-10.95	-12.43	36.83
CSc1nccn1-c1cccc(C(=O)NCCCN2CCOCC2)c1	-0.3139	23.33	21.91
CC(c1cccc(S(N)(=O)=O)c1)N(C)CCOC(C)(C)C (configuration not stated)	13.66	-	42.33
Cc1cn2c(n1)CCC(NS(=O)(=O)c1sc(C)nc1C)C2 (configuration not stated)	1.202	-41.5	13.11
CCC(=O)N1CCC2(CC1)c1nc[nH]c1CCN2S(C)(=O)=O	-3.257	-10.29	20.96
CC(=O)N[C@@H]1CN(C(=O)c2cnc3ccccc3c2)C[C@H]1O	3.261	-9.189	-10.95
CC(C)(C)c1ncc(C(=O)NCc2ccccc2CN2CCCC2)s1	-3.349	12.14	-7.808
N#Cc1cccc(N2CCC(c3nccn3Cc3cscn3)CC2)n1	5.902	3.271	30.04
CNCc1cc(C)n(-c2ccccc2OC)c1C	-16.57	-41.72	19.3
Cc1cc(C)c(C(=O)N2CCc3c(ncn3CCc3ccccc3)C2)[nH]1	-12.22	-4.114	-5.767
CN1CC(Oc2ccccc2)=NC(SCC(=O)Nc2ccc(Cl)cc2)=N1	3.349	-33.79	9.939
COc1ccc2c(c1)OCC(Cc1ccc(N)cn1)C2 (configuration not stated)	-5.323	-11.33	-10.17
COC(CNC(=O)C1CC1)c1ccc(C)s1 (configuration not stated)	-8.46	-30.73	-40.01
[H][C@@]12CN(S(C)(=O)=O)C[C@]1(C(=O)NCC1CC1)CCCN2c1ncccn1	3.117	-91.29	51.67
CCNC(=O)NC(=O)CSC(C)c1c(F)cccc1F (configuration not stated)	-2.313	-9.152	1.951
CC(=O)N1CCN(C(=O)Nc2ccccc2)CC2(CC(=O)N(C)C2)C1 (configuration not stated)	10.87	-12.83	-15.73
CC(O)CN(C(=O)NC1CC1)C(C)C (configuration not stated)	16.43	-68.12	2.754
Cc1ccc(N2CCC3(CCN(C(=O)N(C)C)CC3)CC2)nn1.O=C(O)C(F)(F)F	1.208	19.5	23.88
CCc1cnc(C)nc1NCc1nc(COC)no1	-0.2378	-60.27	23.99
Cn1ccc(C(=O)N2CCCC(Cc3cccc4ncccc34)C2)n1 (configuration not stated)	22.61	-5.178	74.08
O=C(O)C(F)(F)F.O=C(O)C(F)(F)F.c1cnn(Cc2nnc3n2CCCN(Cc2ccsc2)C3)c1	6.153	1.222	19.25
COc1ccc(Br)c(C(=O)NCC2CC2)c1	7.907	-4.393	1.301
CS(=O)(=O)N1CCC(NC(=O)COc2cccc(Cl)c2)CC1	4.841	-	10.5
Cc1cc(CN(C)C2CCCN(c3cccnn3)C2)on1 (configuration not stated)	0.1101	-6.342	15.04
Cc1ccc(C(=O)CCC(=O)N2CCC(c3nncn3C)CC2)cc1	2.012	23.69	-2.914
CC(=O)c1ccc(NC(=O)N(CCN(C)C)Cc2ccc(C)s2)cc1	-7.491	-6.551	-4.635
CC(=O)N(C)c1nc(CN2CCN(Cc3nccn3C)CC2)cs1	-1.67	-94.33	5.012

The values are deposited in ChEMBL (CHEMBL3988442, “University of Dundee, Small-Polar-MMV Screening Library” (2021)).